Measured values as given in article doi:10.1101/2021.09.21.461272.
Where two headings read alike, the source gives them in different places. These are yes or no findings as the source states them, for the method shown. Binding seen in cells or lysates may run through a third protein. Some binding calls cover weakened binding; strength is not graded here. Where a sequence is shown, tags or fusion partners need not be part of it.

Legend:
Assay in all cases: co-IP
Rpn2-GFP (S. cerevisiae) [1] = target: T1, Rpn2-GFP (S. cerevisiae) (UniProt P32565)
T1 sequence: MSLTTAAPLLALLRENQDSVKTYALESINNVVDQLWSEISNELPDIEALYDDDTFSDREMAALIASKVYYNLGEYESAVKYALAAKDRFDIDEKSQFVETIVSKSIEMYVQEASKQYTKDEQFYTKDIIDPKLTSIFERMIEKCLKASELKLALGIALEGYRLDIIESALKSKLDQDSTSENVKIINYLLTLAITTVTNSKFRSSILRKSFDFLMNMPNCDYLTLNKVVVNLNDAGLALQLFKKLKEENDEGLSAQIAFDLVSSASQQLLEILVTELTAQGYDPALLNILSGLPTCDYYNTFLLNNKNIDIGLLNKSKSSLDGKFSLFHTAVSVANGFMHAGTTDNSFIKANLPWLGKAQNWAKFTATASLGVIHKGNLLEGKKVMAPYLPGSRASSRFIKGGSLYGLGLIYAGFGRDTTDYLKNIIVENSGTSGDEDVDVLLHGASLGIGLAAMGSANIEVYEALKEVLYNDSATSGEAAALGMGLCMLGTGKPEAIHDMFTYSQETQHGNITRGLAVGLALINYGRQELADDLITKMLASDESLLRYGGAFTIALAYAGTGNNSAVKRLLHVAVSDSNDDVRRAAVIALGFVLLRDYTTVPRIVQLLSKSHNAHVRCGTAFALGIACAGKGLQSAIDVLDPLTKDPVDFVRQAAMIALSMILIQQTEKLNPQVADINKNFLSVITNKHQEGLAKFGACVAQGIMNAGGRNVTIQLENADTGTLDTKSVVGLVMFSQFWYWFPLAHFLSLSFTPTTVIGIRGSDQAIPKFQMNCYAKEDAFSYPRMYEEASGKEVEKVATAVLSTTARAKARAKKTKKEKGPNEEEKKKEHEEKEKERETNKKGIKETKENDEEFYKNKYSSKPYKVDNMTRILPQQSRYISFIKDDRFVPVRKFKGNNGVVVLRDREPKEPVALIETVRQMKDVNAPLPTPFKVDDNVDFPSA

[2] = target: T2, Rpn5-yEGFP (S. cerevisiae) (UniProt Q12250)
T2 sequence: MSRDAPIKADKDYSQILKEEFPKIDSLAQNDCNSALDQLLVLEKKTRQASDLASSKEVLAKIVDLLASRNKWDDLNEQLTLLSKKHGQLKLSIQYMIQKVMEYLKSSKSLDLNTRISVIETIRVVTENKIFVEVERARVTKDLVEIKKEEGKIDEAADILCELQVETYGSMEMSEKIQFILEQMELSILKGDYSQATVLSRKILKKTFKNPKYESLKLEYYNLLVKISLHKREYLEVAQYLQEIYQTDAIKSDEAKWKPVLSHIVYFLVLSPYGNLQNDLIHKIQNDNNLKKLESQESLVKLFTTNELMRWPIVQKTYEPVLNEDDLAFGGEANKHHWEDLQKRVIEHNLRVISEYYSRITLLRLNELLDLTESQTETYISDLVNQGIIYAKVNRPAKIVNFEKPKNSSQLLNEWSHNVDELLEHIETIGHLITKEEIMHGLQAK

Rpn2-GFP (S. cerevisiae) [3] = target: T1, Rpn2-GFP (S. cerevisiae); remark: listed apart in the source
[4] = target: T2, Rpn5-yEGFP (S. cerevisiae); remark: listed apart in the source

Measured: binding

B1: HA-Vps27 (protein, UniProt P40343 1-622)
chain: MSVSTPSELDALIEQATSESIPNGDLDLPIALEISDVLRSRRVNPKDSMRCIKKRILNTADNPNTQLSSWKLTNICVKNGGTPFIKEICSREFMDTMEHVILREDSNEELSELVKTILYELYVAFKNDSQLNYVAKVYDKLISRGIKFPEKLTLSNSPTAMFDSKTPADWIDSDACMICSKKFSLLNRKHHCRSCGGVFCQEHSSNSIPLPDLGIYEPVRVCDSCFEDYDLKRHDDSKKSKKHRHKRKKDRDYSTPEDEEELIRKAIELSLKESRNSASSEPIVPVVESKNEVKRQEIEEEEDPDLKAAIQESLREAEEAKLRSERQKASRQMQPQQPSPQPQPIHSVDLSDEEKDSIYMFASLVEKMKSRPLNEILEDSKLQNLAQRVFASKARLNYALNDKAQKYNTLIEMNGKISEIMNIYDRLLEQQLQSINLSQQYTLPQVPSDPYNYLTENVQNPAESYQTPPLQQLSSHQYKPQQDVSRQQSVKANSSPTTNIDHLKTIDVTPHAQQKPQSHVELAPSDPPYPKEEAEDEGTQAVQDEESSTQESRERPYPVETENGETSINKRPQGITRYDFPTVPARKFVQPESTVPLPASSSEIPIKEERPPSPQEELLIEL
binds: all assays above
